# Screening data

Data taken from PubChem BioAssay AID624032, deposited by NCATS (2012).

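Rat S16 Schwann cells stably carrying a firefly luciferase reporter under a PMP22 intronic regulatory element; luminescence measured after 24 h of compound exposure. Seventeen-point concentration series from about 0.00016 to 58 µM. Potency is the AC50 from a fitted inhibition curve, the concentration giving half the maximal fitted effect; a lower value means a more potent inhibitor. Calls follow the activity score from curve class and fit: scores 40–100 are active, 1–39 inconclusive, 0 inactive; all rows here are inconclusive.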

Values are in µM. Every entry below has the call inconclusive. These entries are mostly ones the record files as inconclusive; other results of the assay are not listed here. A potency from a partial, single-point or poor curve is only a rough figure. Activity scores are not listed here.

| structure | Potency (µM) | curve |
|---|---|---|
| `O=[As]O[As]=O` (stereo not given) | 28.7 | inhibitor, partial curve |
| `COC1C=CO[C@@]2(C)Oc3c(C)c(O)c4c(O)c(c5c(nc6cc(C)ccn65)c4c3C2=O)NC(=O)/C(C)=C\C=CC(C)C(O)[C@@H](C)C(O)C(C)[C@@H](OC(C)=O)C1C` (stereo not given in full) | 16.14 | inhibitor, partial curve, poor fit |
| `O=C(O)c1c(Cl)c(Cl)c(Cl)c(Cl)c1-c1c2cc(I)c(=O)c(I)c-2oc2c(I)c(O)c(I)cc12` | 28.7 | inhibitor, partial curve, poor fit |
| `CC[N+](C)(CC)CCOC(=O)C(O)(c1ccccc1)c1ccccc1` | 40.53 | inhibitor, single point |
| `CCCCCCCCCCCCCCNCCO` | 32.2 | inhibitor, partial curve |
| `O=Cc1ccccc1C=O` | 40.53 | inhibitor, partial curve, poor fit |
| `C=C(CC)C(=O)c1ccc(OCC(=O)O)c(Cl)c1Cl` | 4.548 | inhibitor, partial curve |
| `Oc1cn2c(n1)Nc1ccc(Cl)c(Cl)c1C2` | 25.57 | inhibitor, partial curve, poor fit |
| `N[C@H](Cc1c[nH]c2ccccc12)C(=O)O` | 28.7 | inhibitor, partial curve |
| `CCOC(=O)C1(c2ccccc2)CCN(CCC(C#N)(c2ccccc2)c2ccccc2)CC1` | 18.11 | inhibitor, full curve, poor fit |
| `Cc1cc(C(C#N)c2ccc(Cl)cc2)c(Cl)cc1NC(=O)c1cc(I)cc(I)c1O` (stereo not given) | 40.53 | inhibitor, single point |
| `CCN(CC)CCOC(=O)C(O)(c1ccccc1)c1ccccc1` | 0.0029 | inhibitor, full curve, poor fit |
| `CC(C)NC[C@@H](O)COc1cccc2ccccc12` | 40.53 | inhibitor, single point |
| `C[N+]12CCCC[C@@H]1CCC(=C(c1cccs1)c1cccs1)C2` (stereo not given in full) | 20.31 | inhibitor, partial curve |
| `CC(=O)O[C@H]1C[C@H](O[C@H]2[C@@H](O)CC(O[C@H]3[C@@H](O)C[C@H](O[C@H]4CC[C@@]5(C)[C@H](CC[C@@H]6[C@@H]5CC[C@]5(C)[C@@H](C7=CC(=O)OC7)CC[C@]65O)C4)O[C@@H]3C)O[C@@H]2C)O[C@H](C)[C@H]1O[C@@H]1O[C@H](CO)[C@@H](O)[C@H](O)[C@H]1O` (stereo not given in full) | 36.13 | inhibitor, single point |
| `CCCN(CCc1cccs1)[C@H]1CCc2c(O)cccc2C1` | 4.053 | inhibitor, partial curve, poor fit |
| `Nc1ncn([C@@H]2O[C@H](CO)[C@@H](O)[C@H]2O)c(=O)n1` | 0.0161 | inhibitor, full curve, poor fit |
| `CC(=O)O[C@@]1(C(C)=O)CCC2C3CC(C)C4=CC(=O)CC[C@@]4(C)C3CC[C@]21C` (stereo not given in full) | 8.087 | inhibitor, partial curve |
| `CN1CCC(=C2c3ccccc3CCc3sccc32)CC1` | 20.31 | inhibitor, partial curve, poor fit |
| `Cn1cnc([N+](=O)[O-])c1Sc1ncnc2nc[nH]c12` | 22.79 | inhibitor, partial curve |
| `COc1cc(C(=O)N2CCCCCCC2)cc(OC)c1OC` | 40.53 | inhibitor, single point |
| `O[C@@H]([C@H](O)[C@H](O)CBr)[C@H](O)CBr` | 0.5103 | inhibitor, partial curve, poor fit |
| `Nc1ccn([C@@H]2O[C@H](CO)[C@@H](O)C2O)c(=O)n1` (stereo not given in full) | 12.82 | inhibitor, partial curve |
| `CC(C)(C)CC(C)(C)c1ccc(OCCOCC[N+](C)(C)Cc2ccccc2)cc1` | 22.79 | inhibitor, partial curve, poor fit |
| `CCCCC(CC)COC(=O)C(C#N)=C(c1ccccc1)c1ccccc1` (stereo not given) | 28.7 | inhibitor, partial curve |
| `C#C[C@]1(O)CC[C@H]2[C@@H]3CCC4=Cc5oncc5C[C@]4(C)[C@H]3CC[C@@]21C` | 16.14 | inhibitor, partial curve, poor fit |
| `O=C(CS(=O)C(c1ccccc1)c1ccccc1)NO` (stereo not given) | 2.869 | inhibitor, full curve, poor fit |
| `O=C(O)CCCc1ccc(N(CCCl)CCCl)cc1` | 9.074 | inhibitor, partial curve, poor fit |
| `CCCCN(CCCC)CCC(O)c1cc2c(Cl)cc(Cl)cc2c2cc(C(F)(F)F)ccc12` (stereo not given) | 7.754 | inhibitor, partial curve, poor fit |
| `CC[C@@]1(O)C[C@H](O[C@H]2C[C@@H](N(C)C)[C@@H](O[C@H]3C[C@@H](O)[C@@H](O[C@H]4CCC(=O)[C@@H](C)O4)[C@@H](C)O3)[C@@H](C)O2)c2c(cc3c(c2O)C(=O)c2c(O)cccc2C3=O)[C@H]1C(=O)OC` | 32.2 | inhibitor, partial curve |
| `CC(C)=CC1C(C(=O)OCN2C(=O)C3=C(CCCC3)C2=O)C1(C)C` (stereo not given) | 40.53 | inhibitor, single point |
| `CC(=O)Oc1ccc(C(c2ccc(OC(C)=O)cc2)c2ccccn2)cc1` | 40.53 | inhibitor, single point |
| `CN1CCCCC1CCN1c2ccccc2Sc2ccc(S(C)=O)cc21` (stereo not given) | 36.13 | inhibitor, partial curve |
| `Oc1ccc(C(O)CNCCCCCCNCC(O)c2ccc(O)c(O)c2)cc1O` (stereo not given) | 0.1282 | inhibitor, full curve, poor fit |
| `COc1cc(-c2ccc(=O)[nH]n2)ccc1OC(F)F` | 1.438 | inhibitor, full curve, poor fit |
| `Cc1ccc(S(=O)(=O)NC(=O)NC2CCCCC2)cc1` | 0.0809 | inhibitor, full curve, poor fit |
| `COC(=O)C[C@](O)(CCCC(C)(C)O)C(=O)O[C@@H]1C(OC)=C[C@]23CCCN2CCc2cc4c(cc2[C@H]13)OCO4` | 0.0064 | inhibitor, full curve, poor fit |
| `COc1ccccc1N1CCN(CCCC(=O)c2ccc(F)cc2)CC1` | 36.13 | inhibitor, single point |
| `O=C1CN(/N=C/c2ccc([N+](=O)[O-])o2)C(=O)N1` | 40.53 | inhibitor, single point |

For reference, 4 entries once more:

structure	Potency (µM)	curve
CN1CCC(=C2c3ccccc3CCc3sccc32)CC1	20.31	inhibitor, partial curve, poor fit
CN1CCCCC1CCN1c2ccccc2Sc2ccc(S(C)=O)cc21 (stereo not given)	36.13	inhibitor, partial curve
O=[As]O[As]=O (stereo not given)	28.7	inhibitor, partial curve
O=C(CS(=O)C(c1ccccc1)c1ccccc1)NO (stereo not given)	2.869	inhibitor, full curve, poor fit